PubChem BioAssay AID651768 (National Center for Advancing Translational Sciences (NCATS), 2012)
Among all 360,000 compounds or so, about 1,700 (0.47%) were called active. The inconclusive results got no clear call from the source; some entries with a clear call stand among them for comparison. Calls come from the whole dose curve; as a rule, active = well fitted inhibition curve with a large enough effect; inconclusive = small, poorly fitted or top-dose-only effect; inactive = no such curve, though single readings can be large or run the other way. Where the call is inconclusive, the potency comes from a doubtful curve fit.

By UniProt entry, the sequences of proteins in these tests, tags left out.
UniProt Q14191, whole entry, looked up: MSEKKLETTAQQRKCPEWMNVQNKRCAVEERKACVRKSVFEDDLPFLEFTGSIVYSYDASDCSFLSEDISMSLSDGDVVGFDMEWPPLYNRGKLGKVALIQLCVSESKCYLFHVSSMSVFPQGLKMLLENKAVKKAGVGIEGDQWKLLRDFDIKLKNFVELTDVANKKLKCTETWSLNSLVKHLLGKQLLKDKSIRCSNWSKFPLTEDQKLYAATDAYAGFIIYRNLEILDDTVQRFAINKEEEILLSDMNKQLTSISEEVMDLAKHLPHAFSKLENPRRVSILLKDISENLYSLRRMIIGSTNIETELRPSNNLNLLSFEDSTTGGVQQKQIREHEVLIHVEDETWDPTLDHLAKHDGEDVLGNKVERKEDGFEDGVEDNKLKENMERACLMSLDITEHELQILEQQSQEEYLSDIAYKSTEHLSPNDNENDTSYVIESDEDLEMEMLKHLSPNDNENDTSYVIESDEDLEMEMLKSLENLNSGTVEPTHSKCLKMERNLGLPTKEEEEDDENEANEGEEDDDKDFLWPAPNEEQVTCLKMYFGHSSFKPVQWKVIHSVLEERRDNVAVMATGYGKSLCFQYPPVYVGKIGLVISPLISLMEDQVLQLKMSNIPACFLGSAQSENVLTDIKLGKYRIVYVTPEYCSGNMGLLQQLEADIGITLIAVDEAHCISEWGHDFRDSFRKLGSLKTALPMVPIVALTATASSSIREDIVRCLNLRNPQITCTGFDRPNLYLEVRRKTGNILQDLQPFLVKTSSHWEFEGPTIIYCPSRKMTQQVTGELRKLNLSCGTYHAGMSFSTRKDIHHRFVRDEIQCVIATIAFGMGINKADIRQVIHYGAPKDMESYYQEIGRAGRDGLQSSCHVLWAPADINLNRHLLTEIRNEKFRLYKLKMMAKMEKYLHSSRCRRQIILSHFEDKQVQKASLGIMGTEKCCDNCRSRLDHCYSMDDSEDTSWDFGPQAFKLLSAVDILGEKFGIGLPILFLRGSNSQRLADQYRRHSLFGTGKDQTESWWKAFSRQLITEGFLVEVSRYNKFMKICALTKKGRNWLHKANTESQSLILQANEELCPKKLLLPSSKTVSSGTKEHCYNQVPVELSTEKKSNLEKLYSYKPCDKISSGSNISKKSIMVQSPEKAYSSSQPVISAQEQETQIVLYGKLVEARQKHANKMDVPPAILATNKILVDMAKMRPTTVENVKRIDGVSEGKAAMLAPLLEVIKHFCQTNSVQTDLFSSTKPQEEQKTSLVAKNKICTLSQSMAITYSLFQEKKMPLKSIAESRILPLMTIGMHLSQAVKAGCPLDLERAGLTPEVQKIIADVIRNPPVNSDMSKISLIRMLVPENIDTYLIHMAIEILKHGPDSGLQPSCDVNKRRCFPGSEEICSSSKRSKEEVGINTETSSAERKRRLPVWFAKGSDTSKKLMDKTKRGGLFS

What follows are compounds tested against Bifunctional 3'-5' exonuclease/ATP-dependent helicase WRN (Homo sapiens) (UniProt Q14191) (assay: qHTS for Inhibitors of WRN Helicase). Settings: WRN helicase unwinding, fluorescent forked duplex, kinetic; activity change, negative = inhibition: at 114 µM (top of the series) unless noted.
Source text: Inhibition of DNA repair is proposed as a strategy for combating cancer. Synthetic lethality is an approach that exploits preexisting DNA repair deficiencies in certain tumors to develop inhibitors of DNA repair pathways that compensate for the tumor-associated DNA repair deficiency. Because helicases play critical roles in the DNA damage response and in DNA repair, particularly in actively dividing and replicating cells, characterization of synthetic lethal relationships of DNA helicases may be of value in developing improved anticancer treatment strategies; moreover, small molecules that specifically target a given DNA helicase may be useful for understanding its role in cellular nucleic acid metabolism. The goal of this project is to identify small molecule, non-covalent chemical inhibitors of the Werner syndrome (WS) helicase (WRN), which plays an important role in cell proliferation, the replication stress response, and DNA repair. […] The WRN gene product that is defective in the chromosomal instability disorder has DNA helicase and exonuclease activities and interacts with a number of nuclear proteins to maintain genomic stability. We will employ an optimized high-throughput screening assay that utilizes a fluorescence intensity modulation scheme with a fluorophore and quencher positioned near one another within a duplex deoxyoligonucleotide that contains a single forked structure. After a high-throughput screen of the ~350,000-member Molecular Libraries Small Molecule Repository (MLSMR) collection, followed by data analysis and hit selection, a panel of confirmatory, as well as secondary and ternary, assays will be employed to identify high-confidence WRN inhibitors. Structure-activity relationships will be investigated for the top candidate inhibitor series through medchem expansion. These are the results of the primary screening campaign against the MLSMR. NIH Chemical Genomics Center [NCGC] NIH Molecular Libraries Probe Centers Network [MLPCN] MLPCN Grant: MH096530 Assay Submitter (PI): Robert Brosh, National Institute of Aging
Three muL of reagents (buffer in columns 3 and 4 as negative controls; WRN at 20 nM final concentration in columns 1 and 2 as positive controls; columns 5-48 as test reactions) will be dispensed into a 1536-well Greiner black plate via solenoid-valve based nanoliter dispensers. Compounds (23 nL each in columns 5-48) and control (23 nL each in column 2 as dose-response) will be transferred via a Kalypsys pintool equipped with a 1536-pin array. Plates will be incubated for 15 min at room temperature, and then 1 µL of substrate (100 nM forked duplex oligonucleotide and 2 mM ATP final concentrations) will be added to start reaction, and plate will be transferred into a ViewLux high-throughput CCD imager where reaction progress is measured in kinetic mode using standard red-fluorescence optics (excitation filter 525 nm, emission filter 598 nm).
% is set by controls: 0 for no effect and ±100 for the full control effect; potency is the fitted concentration of half-maximal effect.
Note: nearly all actives have a fitted effect of over 55% in size.

SMILES | Potency | activity change, negative = inhibition
N=c1oc2c3c4c(cc2cc1C(=O)Nc1ccccc1)CCCN4CCC3 | active: 56.2 µM | –
Cc1ccc(N=C2NC(=O)/C(=C/c3cccnc3)S2)cc1C | inconclusive: 79.4 µM [inhibitor, partial curve] | –
O=C(O)c1c[nH]c2ccc(S(=O)(=O)N3CCN(c4ccc(F)cc4)CC3)cc2c1=O | inactive | –
CN(C)CCN(C(=O)c1ccc2ccccc2c1)c1nc2cc3c(cc2s1)OCCO3 | inconclusive: 79.4 µM [inhibitor, single point] | –
CCSC1=NSC2=NC(=O)/C(=C\c3coc4ccccc4c3=O)C(=N)N12 | inconclusive: 44.7 µM [inhibitor, partial curve] | –
C#CCOCCOCCOCCNc1nc(N2CCN(C(=O)CCCCCCCCCCNC(=O)[C@H]([C@@H](C)CC)n3cc(CCCCN=C(N)N)nn3)CC2)nc(N2CCN(C(=O)CCCCCCCCCCNC(=O)[C@@H]([C@H](C)O)n3cc(C)nn3)CC2)n1 | active: 56.2 µM | –
Cc1cccc2sc(NC(=O)C3CCN(S(=O)(=O)c4cc([N+](=O)[O-])ccc4Cl)CC3)nc12 | inconclusive: 13.4 µM [inhibitor, partial curve] | –
O=C(O)CCCN1C(=O)/C(=C/c2cn(-c3ccccc3)nc2-c2cccs2)SC1=S | active: 50.1 µM | –
COC(=O)c1ccccc1-c1c2ccc(=N)cc-2oc2cc(N)ccc12 | active: 4.74 µM | –
O=C(CCN1CCCCCC1)c1ccccc1 | inactive | –
O=C(COC(=O)c1ccccc1)Nc1ncc([N+](=O)[O-])s1 | active: 2.99 µM | –
CC(=O)Oc1ccc(-c2cccc(C(=O)NCCCO)c2)cc1 | inconclusive: 11.2 µM [inhibitor, partial curve] | –
C=C(C)C(=O)Nc1cccc(C2=NOC3(C2)C[C@H](C(N)=O)N(C(=O)c2ccccc2C(=O)c2ccccc2)C3)c1 (some centres undefined) | inconclusive: 44.7 µM [inhibitor, partial curve] | –
Cn1c(NCCc2ccncc2)nc2cc(-c3ccccc3)sc2c1=O | inconclusive: 50.1 µM [inhibitor, partial curve] | –
CCOc1cc(N2CCOCC2)c(OCC)cc1NC(C)C(=O)N1CCN(CC)CC1 (centres undefined) | inconclusive: 20 µM [inhibitor, full curve] | –
O=C(NNC(=O)c1ccc(-c2ccccc2)cc1)c1ccccc1 | – | inactive: -6.48% [at 11.6 µM]
NS(=O)(=O)c1ccc(NC(=O)/C=C/c2ccco2)cc1 | inconclusive: 50.1 µM [inhibitor, partial curve] | –
O=C(CN1C(=O)S/C(=C\c2cccs2)C1=O)Nc1ccc(O)cc1C(=O)O | inactive | –
Cc1ccc(F)cc1CNC(=O)C1CCC(=O)N(C2CC2)C1 (centres undefined) | inconclusive: 89.1 µM [inhibitor, single point] | –
Nc1nc(NCCO)nc(N2CCCCCC2)c1[N+](=O)[O-] | inactive | –
CCOc1ccc(NC(=O)CN(C)C(=O)c2cc3c(s2)CCC3)cc1OCC | inconclusive: 31.6 µM [inhibitor, partial curve, poor fit] | –
Cn1c(SCC(=O)Nc2ccc3nc(SCC(=O)N4CCCC4)sc3c2)nnc1-c1ccc(N)cc1 | inconclusive: 44.7 µM [inhibitor, partial curve] | –
Cc1ccccc1NS(=O)(=O)c1c(C(=O)N2CCCCCC2)c(C)n(C)c1C | inactive | –

SMILES | Potency | activity change, negative = inhibition
Cc1ccc(S(=O)(=O)/N=C2/NC(=O)/C(=C/c3cccnc3)S2)cc1 | inconclusive: 44.7 µM [inhibitor, partial curve] | –
CC(=O)c1cccc(N2Cc3ccccc3C2=NC(=O)CCl)c1 | inactive | –
COc1ccc(NC(=O)CN(c2cc(C)cc(C)c2)S(=O)(=O)c2c(C)n[nH]c2C)cc1 | inactive | –
O=C(N/N=C/c1ccc(O)c(O)c1O)/C(=C/c1ccc([N+](=O)[O-])cc1)NC(=O)c1ccccc1 | active: 39.8 µM | –
CCOC(=O)/C=C/C(=O)Nc1cccc([N+](=O)[O-])c1 | active: 35.5 µM | –
CNc1ccc(Br)cc(C(=O)/C=C/c2ccc(OC)cc2OC)c1=O | inconclusive: 39.8 µM [inhibitor, partial curve] | –
CC(NC(=O)C1CCN(S(=O)(=O)c2ccccc2)CC1)c1ccccc1 (centres undefined) | inactive | –
Cn1nc(-c2ccccn2)nc2c(=O)n(C)c(=O)nc1-2 | inactive | –
N#Cc1c(N)sc(=S)c2c1CCCCC2 | active: 20 µM | –
O=C(O)C(O)(c1ccccc1)C(O)c1ccccc1 (centres undefined) | inconclusive: 39.8 µM [inhibitor, single point] | –
COc1ccccc1CNc1nc(NCc2ccc(C)cc2C)c2sccc2n1 | inactive | –
CCOc1ccccc1N1CCN(C(=O)c2ccc3nc(N)sc3c2)CC1 | inconclusive: 20 µM [inhibitor, full curve] | –
NS(=O)(=O)c1ccc(NC(=O)COC(=O)c2ccc([N+](=O)[O-])s2)cc1 | – | inactive: 3.14% [at 11.6 µM]
CCOC(=O)C1CCN(C(=O)c2ccc(SC)cc2OC)CC1 | inactive | –
COc1cccc(-c2nc(NCc3cccnc3)c3ccccc3n2)c1O | inconclusive: 79.4 µM [inhibitor, partial curve] | –
COC(=O)c1sccc1-c1ccc(C(=O)Nc2cccc(Cl)c2)o1 | inconclusive: 63.1 µM [inhibitor, partial curve, poor fit] | –
COc1ccccc1OCCCOc1ccc(/C=C2\SC(=O)NC2=O)cc1OC | inconclusive: 79.4 µM [inhibitor, partial curve] | –
c1csc(Cc2nn3c(-c4ccncc4)nnc3s2)c1 | inconclusive: 44.7 µM [inhibitor, partial curve] | –
Cc1ccc(NC(=O)CN2C(=O)N/C(=C\c3cccn3-c3cccc(C(=O)O)c3)C2=O)cc1 | active: 28.2 µM | –
CCOc1ccccc1N(C(=O)c1snc(C(N)=O)c1N)C(C(=O)NCC1CCCO1)c1ccc2ncccc2c1 (centres undefined) | inconclusive: 3.16 µM [inhibitor, partial curve, poor fit] | –
COC(=O)CCC(=O)OC1(C)C(=O)C=C2C=C(c3ccsc3)OC=C2C1=O (centres undefined) | inconclusive: 79.4 µM [inhibitor, partial curve] | –
COc1ccccc1NC(=O)/C=C\c1ccco1 | inactive | –
O=[N+]([O-])c1cccc(S(=O)(=O)Nc2nc3ccccc3nc2Nc2cccc(S(=O)(=O)N3CCCCC3)c2)c1 | inconclusive: 31.6 µM [inhibitor, single point] | –

SMILES | Potency | activity change, negative = inhibition
O=C(O)c1ccc(-c2ccc(/C=C3\NC(=O)N(Cc4ccc(Cl)cc4)C3=O)o2)cc1Cl | active: 22.4 µM | –
COc1ccccc1OCCNC(=O)c1cccc(S(=O)(=O)N2CCN(C)CC2)c1 | inconclusive: 79.4 µM [inhibitor, single point] | –
COc1ccc(-n2c(NC(=O)c3ccco3)c(C#N)c3nc4ccccc4nc32)cc1 | active: 50.1 µM | –
CCN1CCN(CCNC(=O)c2ccc3c(c2)NC(=O)/C(=C\c2ccc(OC)c(OC)c2)S3)CC1 | inconclusive: 50.1 µM [inhibitor, partial curve] | –
CCOC(=O)C1=C(CSc2nc(-c3ccccc3)ccc2C#N)OC(N)=C(C#N)C1c1ccc(OC)cc1 (centres undefined) | – | inconclusive: -63.4% [inhibitor] [at 57.1 µM]
C/C(=N\NC(=O)c1cccc(N/N=C(\C)c2ccco2)c1)c1ccco1 | – | inactive: -6.72% [at 11.6 µM]
CN(CC(=O)NCC1CCCO1)S(=O)(=O)c1ccc(Br)cc1 (centres undefined) | inconclusive: 89.1 µM [inhibitor, single point] | –
Cc1cc(SCC(=O)N/N=C/c2ccc(O)c(O)c2)nc2ccccc12 | active: 79.4 µM | –
COc1ccc(/C=N/NC(=O)c2[nH]c3ccc(Cl)cc3c2-c2ccccc2)c(C(=O)O)c1OC | inconclusive: 35.5 µM [inhibitor, partial curve] | –
O=C1c2nc3cc(-c4ccco4)[nH]n3c(=O)c2CN1Cc1ccccc1 | inconclusive: 8.91 µM [inhibitor, full curve, poor fit] | –
CC(=O)c1ccc2c(c1)C1C=CCC1C(c1ccc(S(=O)(=O)N3CCOCC3)cc1)N2 (centres undefined) | inconclusive: 89.1 µM [inhibitor, single point] | –
Cc1[nH]n(-c2ccccc2)c(=O)c1Sc1ccc(Cl)cc1 | inactive | –
CCN(CC)c1ccc(/C=C/c2ccc3ccc(OC)cc3[n+]2CC)cc1 | active: 56.2 µM | –
C/C=C/COC(=O)c1[nH]c2c(c1C)C(=O)CC(c1ccco1)C2 (centres undefined) | inconclusive: 56.2 µM [inhibitor, partial curve] | –
Cc1cccc(C(=O)NNS(=O)(=O)c2ccccc2[N+](=O)[O-])c1 | inactive | –
Cc1cc(C)nc(SC2=CS(=O)(=O)c3ccccc32)n1 | inactive | –
COc1ccc(C(=O)/C(=C\c2ccco2)N2C=CC=CC2=C(C#N)C#N)cc1 | inconclusive: 50.1 µM [inhibitor, partial curve] | –
CC1CCCN(C(=O)c2ccc(COc3ccccc3Br)cc2)C1 (centres undefined) | inactive | –
Cc1sc2ccccc2[n+]1CC(=O)O | active: 50.1 µM | –
Cc1c(Br)c(O)c(Br)c(O)c1/C=N/n1c(-c2ccccc2)n[nH]c1=S | active: 44.7 µM | –
O=C1C=C(c2ccc(Cl)cc2)C(=O)N1Nc1ccccc1 | inconclusive: 50.1 µM [inhibitor, partial curve] | –
CCCCn1c(N)c(N(CCOC)C(=O)c2cc3c(s2)CCC3)c(=O)[nH]c1=O | inconclusive: 35.5 µM [inhibitor, partial curve, poor fit] | –
Cc1ccc(S(=O)(=O)N2CCN(C(=O)c3cccc(-n4cccc4)c3)CC2)cc1 | inconclusive: 25.1 µM [inhibitor, full curve, poor fit] | –

14 compounds from above, sorted by heavy-atom count, largest number first:
SMILES | Potency | activity change, negative = inhibition
CCOC(=O)C1=C(CSc2nc(-c3ccccc3)ccc2C#N)OC(N)=C(C#N)C1c1ccc(OC)cc1 (centres undefined) | – | inconclusive: -63.4% [inhibitor] [at 57.1 µM]
CCN1CCN(CCNC(=O)c2ccc3c(c2)NC(=O)/C(=C\c2ccc(OC)c(OC)c2)S3)CC1 | inconclusive: 50.1 µM [inhibitor, partial curve] | –
COc1ccc(/C=N/NC(=O)c2[nH]c3ccc(Cl)cc3c2-c2ccccc2)c(C(=O)O)c1OC | inconclusive: 35.5 µM [inhibitor, partial curve] | –
O=C(O)c1ccc(-c2ccc(/C=C3\NC(=O)N(Cc4ccc(Cl)cc4)C3=O)o2)cc1Cl | active: 22.4 µM | –
COc1ccccc1OCCNC(=O)c1cccc(S(=O)(=O)N2CCN(C)CC2)c1 | inconclusive: 79.4 µM [inhibitor, single point] | –
Cc1ccc(S(=O)(=O)N2CCN(C(=O)c3cccc(-n4cccc4)c3)CC2)cc1 | inconclusive: 25.1 µM [inhibitor, full curve, poor fit] | –
CCCCn1c(N)c(N(CCOC)C(=O)c2cc3c(s2)CCC3)c(=O)[nH]c1=O | inconclusive: 35.5 µM [inhibitor, partial curve, poor fit] | –
O=C1c2nc3cc(-c4ccco4)[nH]n3c(=O)c2CN1Cc1ccccc1 | inconclusive: 8.91 µM [inhibitor, full curve, poor fit] | –
Cc1c(Br)c(O)c(Br)c(O)c1/C=N/n1c(-c2ccccc2)n[nH]c1=S | active: 44.7 µM | –
CC1CCCN(C(=O)c2ccc(COc3ccccc3Br)cc2)C1 (centres undefined) | inactive | –
C/C=C/COC(=O)c1[nH]c2c(c1C)C(=O)CC(c1ccco1)C2 (centres undefined) | inconclusive: 56.2 µM [inhibitor, partial curve] | –
CN(CC(=O)NCC1CCCO1)S(=O)(=O)c1ccc(Br)cc1 (centres undefined) | inconclusive: 89.1 µM [inhibitor, single point] | –
O=C1C=C(c2ccc(Cl)cc2)C(=O)N1Nc1ccccc1 | inconclusive: 50.1 µM [inhibitor, partial curve] | –
Cc1sc2ccccc2[n+]1CC(=O)O | active: 50.1 µM | –
